Measurements as given in patent US20200087367A1 (ACCELERON PHARMA, published 2020).
Results are given in words; binding and its absence hold for the method and conditions named. Some entries that bind do so weakly or less than the wild type.

Chains of the proteins cited; added tags and fusions are not shown. Lines headed by an entry give the natural chain unless they say otherwise; changes in a name come on top.
UniProt P27037: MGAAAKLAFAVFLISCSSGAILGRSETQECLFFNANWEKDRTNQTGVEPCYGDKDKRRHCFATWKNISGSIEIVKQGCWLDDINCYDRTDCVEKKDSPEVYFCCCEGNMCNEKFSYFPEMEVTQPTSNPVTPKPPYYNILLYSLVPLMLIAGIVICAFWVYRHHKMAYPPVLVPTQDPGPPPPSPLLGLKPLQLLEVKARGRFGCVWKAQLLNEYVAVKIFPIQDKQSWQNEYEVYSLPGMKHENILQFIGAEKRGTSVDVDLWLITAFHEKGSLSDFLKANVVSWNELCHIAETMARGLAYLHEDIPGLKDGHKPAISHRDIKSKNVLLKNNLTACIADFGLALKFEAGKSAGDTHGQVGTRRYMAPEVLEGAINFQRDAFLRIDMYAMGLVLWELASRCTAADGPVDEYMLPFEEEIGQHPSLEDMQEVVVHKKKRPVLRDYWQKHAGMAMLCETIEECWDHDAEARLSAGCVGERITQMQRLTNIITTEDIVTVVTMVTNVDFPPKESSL

Experiments:
BMP6 [1] = biological target: T1, BMP6 (human, UniProt P22004 382-513, limits assumed); assay: SPR (Biacore), ligand amine-coupled to chip, Fc fusion injected
T1 sequence (looked up): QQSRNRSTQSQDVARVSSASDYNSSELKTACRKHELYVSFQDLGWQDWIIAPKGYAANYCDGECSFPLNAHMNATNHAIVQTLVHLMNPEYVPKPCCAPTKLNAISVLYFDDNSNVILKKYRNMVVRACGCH

BMP6 [2] = biological target: T1, BMP6; assay: SPR (Biacore), BMP10pro-Fc captured by anti-Fc antibody, ligand injected
BMP6 [3] = biological target: T1, BMP6; assay: SPR (Biacore), ligand amine-coupled to CM5 chip, Fc fusion injected
BMP6 [4] = biological target: T1, BMP6; assay: SPR (Biacore), ligand amine-coupled to chip, Fc fusion injected; remark: listed apart in the source
BMP10 [5] = biological target: T2, BMP10 (human, UniProt O95393 317-424); assay: SPR, captured hENG-hFc, soluble BMP10 at 100 nM; ++++ = KD <1 nM
T2 construct: also called hBMP-10; hBMP10
T2 sequence: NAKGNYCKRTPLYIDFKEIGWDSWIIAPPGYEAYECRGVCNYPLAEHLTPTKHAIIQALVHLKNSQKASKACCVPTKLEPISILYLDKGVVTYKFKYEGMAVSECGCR

BMP9 [6] = biological target: T3, BMP9 (human, UniProt Q9UK05 320-429); assay: SPR, captured hENG-hFc, soluble BMP9 at 100 nM; ++++ = KD <1 nM
T3 construct: also called hBMP-9; hBMP9
T3 sequence (looked up): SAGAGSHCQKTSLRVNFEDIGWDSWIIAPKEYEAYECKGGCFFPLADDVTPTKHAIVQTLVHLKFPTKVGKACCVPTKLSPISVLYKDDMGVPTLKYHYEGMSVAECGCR

BMP10 [7] = biological target: T2, BMP10; assay: SPR kinetics
BMP9 [8] = biological target: T3, BMP9; assay: SPR ligand screen
BMP10 [9] = biological target: T2, BMP10; assay: SPR ligand screen
BMP9 [10] = biological target: T3, BMP9; assay: SPR ligand screen, hBMP-9 at 5 nM; ++++ = KD <1 nM
BMP10 [11] = biological target: T2, BMP10; assay: SPR ligand screen, hBMP-10 at 5 nM; ++++ = KD <1 nM

For “ActRIIA-mFc (from UniProt P27037 21-135) (Fc fusion)”, which binding (BMP6 [1]) is on record?
Its binding is “binds”.

B1: BMP10pro(22-315)-mFc (Fc fusion, not shown: a dimerising Fc or GST)
chain: SPIMNLEQSPLEEDMSLFGDVFSEQDGVDFNTLLQSMKDEFLKTLNLSDIPTQDSAKVDPPEYMLELYNKFATDRTSMPSANIIRSFKNEDLFSQPVSFNGLRKYPLLFNVSIPHHEEVIMAELRLYTLVQRDRMIYDGVDRKITIFEVLESKGDNEGERNMLVLVSGEIYGTNSEWETFDVTDAIRRWQKSGSSTHQLEVHIESKHDEAEDASSGRLEIDTSAQNKHNPLLIVFSDDQSSDKERKEELNEMISHEQLPELDNLGLDSFSSGPGEEALLQMRSNIIYDSTARIR
B1 was tested. Which binding (BMP6 [2]) did it give?
Its binding is “binds”.

B2: BMP10pro(22-312)-mFc (Fc fusion, not shown: a dimerising Fc or GST)
chain: SPIMNLEQSPLEEDMSLFGDVFSEQDGVDFNTLLQSMKDEFLKTLNLSDIPTQDSAKVDPPEYMLELYNKFATDRTSMPSANIIRSFKNEDLFSQPVSFNGLRKYPLLFNVSIPHHEEVIMAELRLYTLVQRDRMIYDGVDRKITIFEVLESKGDNEGERNMLVLVSGEIYGTNSEWETFDVTDAIRRWQKSGSSTHQLEVHIESKHDEAEDASSGRLEIDTSAQNKHNPLLIVFSDDQSSDKERKEELNEMISHEQLPELDNLGLDSFSSGPGEEALLQMRSNIIYDSTA
For B2, which binding (BMP6 [2]) is on record?
Its binding is “binds”.

B3: ActRIIB-mFc (Fc fusion, not shown: a dimerising Fc or GST)
chain: GRGEAETRECIYYNANWELERTNQSGLERCEGEQDKRLHCYASWRNSSGTIELVKKGCWLDDFNCYDRQECVATEENPQVYFCCCEGNFCNERFTHLPEAGGPEVTYEPPPTAPT
For B3, which binding (BMP6 [3]) is on record?
Its binding is “binds”.

B4: ActRIIB(L79D 25-131)-mFc (Fc fusion)
chain: ETRECIYYNANWELERTNQSGLERCEGEQDKRLHCYASWRNSSGTIELVKKGCWDDDFNCYDRQECVATEENPQVYFCCCEGNFCNERFTHLPEAGGPEVTYEPPPT
notes: not shown: linker and mouse Fc domain
Which binding (BMP6 [4]) does the source give for B4 here?
Its binding is “binds”.

B5: hENG(26-581)-hFc (Fc fusion, not shown: a dimerising Fc or GST)
chain: ETVHCDLQPVGPERGEVTYTTSQVSKGCVAQAPNAILEVHVLFLEFPTGPSQLELTLQASKQNGTWPREVLLVLSVNSSVFLHLQALGIPLHLAYNSSLVTFQEPPGVNTTELPSFPKTQILEWAAERGPITSAAELNDPQSILLRLGQAQGSLSFCMLEASQDMGRTLEWRPRTPALVRGCHLEGVAGHKEAHILRVLPGHSAGPRTVTVKVELSCAPGDLDAVLILQGPPYVSWLIDANHNMQIWTTGEYSFKIFPEKNIRGFKLPDTPQGLLGEARMLNASIVASFVELPLASIVSLHASSCGGRLQTSPAPIQTTPPKDTCSPELLMSLIQTKCADDAMTLVLKKELVAHLKCTITGLTFWDPSCEAEDRGDKFVLRSAYSSCGMQVSASMISNEAVVNILSSSSPQRKKVHCLNMDSLSFQLGLYLSPHFLQASNTIEPGQQSFVQVRVSPSVSEFLLQLDSCHLDLGPEGGTVELIQGRAAKGNCVSLLSPSPEGDPRFSFLLHFYTVPIPKTGTLSCTVALRPKTGSQDQEVHRTVFMRLNIISPDLSG
Which results are given for B5?
binding (BMP10 [5]): binds; binding (BMP9 [6]): binds

B6: hENG(26-437)-hFc (Fc fusion, not shown: a dimerising Fc or GST)
chain: ETVHCDLQPVGPERGEVTYTTSQVSKGCVAQAPNAILEVHVLFLEFPTGPSQLELTLQASKQNGTWPREVLLVLSVNSSVFLHLQALGIPLHLAYNSSLVTFQEPPGVNTTELPSFPKTQILEWAAERGPITSAAELNDPQSILLRLGQAQGSLSFCMLEASQDMGRTLEWRPRTPALVRGCHLEGVAGHKEAHILRVLPGHSAGPRTVTVKVELSCAPGDLDAVLILQGPPYVSWLIDANHNMQIWTTGEYSFKIFPEKNIRGFKLPDTPQGLLGEARMLNASIVASFVELPLASIVSLHASSCGGRLQTSPAPIQTTPPKDTCSPELLMSLIQTKCADDAMTLVLKKELVAHLKCTITGLTFWDPSCEAEDRGDKFVLRSAYSSCGMQVSASMISNEAVVNILSSSSPQR
What does the source list for B6?
binding (BMP10 [7]): binds; binding (BMP9 [8]): binds; binding (BMP10 [9]): binds; binding (BMP10 [5]): binds; binding (BMP9 [10]): binds; binding (BMP9 [6]): binds; binding (BMP10 [11]): binds
